Measured values: patent US20050032121A1, “Method of analyzing data obtained from a biological assay” (Pierce Biotechnology, Inc., priority 2003, published 2005)
At least one read-out could not be matched to a standard name with certainty. At least one structure is not confirmed: it was looked up by name or label, or the drawing left a doubt.

Molecular target: PKC purified from rat brain
Assay: IQ Platform PKC/PS inhibitor study (fluorescence quench kinase assay)
Assay type: biochemical
Details: 500 μU PKC per μl, 60 μM fluorophore-labeled pseudosubstrate peptide, 20 μM ATP, 1 hour room temperature, sigmoidal nonlinear regression; read-out: EC 50 Best Fit

Molecule	EC50
CN(C)CCCn1cc(C2=C(c3c[nH]c4ccccc34)C(=O)NC2=O)c2ccccc21 [Bisindolylmaleimide I]	20.2 nM
Calphostin C	20.9 nM
